# Measured values as given in PubChem BioAssay AID651820 (National Center for Advancing Translational Sciences (NCATS), 2012).
# Among all 340,000 compounds or so, about 12,000 (3.5%) were called active. These results got no clear call from the source, so the numbers are uncertain. Calls come from the whole dose curve; as a rule, active = well fitted inhibition curve with a large enough effect; inconclusive = small, poorly fitted or top-dose-only effect, or another doubt; inactive = no such curve, though single readings can be large or run the other way. Some results for these compounds are left out of this collection, so the calls shown say nothing about other tests.
# Assay: qHTS Assay for Inhibitors of Hepatitis C Virus (HCV)
# Conditions: Huh7.5.1 HCVcc-Cre (HCVcc is cell-culture hepatitis C virus) infection, luciferase reporter, 44 h; activity change, negative = inhibition: at 41.8 µM (top of the series)
# Excerpt: Hepatitis C virus (HCV) infects about 200 million people in the world. Many infected people progress to chronic liver disease including cirrhosis with a risk of developing liver cancer. To date, there is no effective vaccine for hepatitis C. Current therapy based on interferon is only effective in about half of the patients and is associated with significant adverse effects. The fraction of people with HCV who can complete a successful treatment is estimated to be no more than 10 percent. Recent development of direct-acting antivirals against HCV, such as protease and polymerase inhibitors, is promising but still requires combination with peginterferon and ribavirin for maximal efficacy. In addition, these agents are associated with high rate of resistance and many have significant side effects. Due to the lack of a culture system for infectious HCV, the search for new HCV drugs has been greatly hampered. […]
# The assay will start with plating 1,000 cells/well in 3 µL volume and culture for 4 h. […] A volume of 4.5 µL luciferase substrates will be added to each well and the plates will be incubated at room temperature for 15 min. and then read for 15 sec. for the luciferase activity
# % is set by controls: 0 for no effect and ±100 for the full control effect.
row,Structure (SMILES),"activity change, negative = inhibition"
1,CCN1CCCC(OC(=O)C2(O)c3ccccc3C=Cc3ccccc32)C1 (stereo unspecified),inconclusive: -35.6%
